# Assay results reported in PMC12670160, “A drug-repurposing screen of FDA- and EMA-approved drugs identifies two NF-κB inhibitors active against eumycetoma” (Journal of Antimicrobial Chemotherapy, 2025).
# Structures can show the parent of a compound that is named as a salt. In all, about 5,300 compounds went through this assay and about 130 (2.5%) showed an effect of 50% or more. Some of the results follow.
# Tested on: M. mycetomatis strain mm55
# Conditions: primary screen, metabolic activity vs growth control; 96 h, 2 µM; inhibitor
row,Compound,% viability
1,"Fc1ccc(CNc2ncnc3ccc(F)cc23)cc1 [ONC0002667, spautin1]",68.76%
2,"CCn1c(=O)n(C2=C(CO)CN(CC3CCCCCCC3)CC2)c2ccccc21 [ONC0003153, trap101]",95.21%
3,"Oc1ccc(C(O)CNCCCCCCNCC(O)c2ccc(O)c(O)c2)cc1O (centres unmarked) [ONC0004677, hexoprenaline sulphate]",88.54%
4,"CCc1c(C(=O)NCCc2ccc(N3CCCCC3)cc2)[nH]c2ccc(Cl)cc12 [ONC0004879, org 27569]",111.9%
5,"Nc1ncnc2c1ncn2[C@@H]1O[C@H](C[C@@H](N)CC[C@H](N)C(=O)O)[C@@H](O)[C@H]1O [ONC0004131, sinefungin]",94.43%
6,"COc1ccccc1NC(=O)OCC1CCN(C(=O)OC(C)(C)C)CC1 [ONC0002504, gw542573x]",75.06%
7,"CN1CCN(c2ccc(C(=O)Nc3n[nH]c4ccc(Cc5cc(F)cc(F)c5)cc34)c(NC3CCOCC3)c2)CC1 [ONC0004424, entrectinib rxdx101]",155.1%
8,"Clc1ccc2c(NCCNc3ccnc4cc(Cl)ccc34)ccnc2c1 [ONC0002241, nsc5844]",73.06%
9,"CN1Cc2ccccc2[C@@H]2c3cccc4[nH]cc(c34)C[C@H]21 [ONC0000732, cy208243]",63.23%
10,"O=c1[nH]c([C@@H]2CCCN2)nc2c1oc1ccc(Cl)cc12 [ONC0001835, xl413 hydrochloride]",97.05%
11,"O=C(Nc1cccc(Cl)c1)Nc1ncc(CCNc2ncnc3ccsc23)s1 [ONC0000061, sns314 methanesulfonate]",83.41%
12,"Nc1nc(N)nc(-c2cc(Cl)ccc2Cl)n1 [ONC0001407, irsogladine]",98.52%
13,"CCN1CCCC1CNC(=O)c1cc(S(=O)(=O)CC)c(N)cc1OC (centres unmarked) [ONC0001538, amisulpride]",104.1%
14,"CC(C)(C)[C@@]1(O)CCN2C[C@@H]3c4ccccc4CCc4cccc(c43)[C@H]2C1 [ONC0002006, butaclamolhcl]",90.12%
15,"CCCS(=O)(=O)Nc1ccc(F)c(C(=O)c2c[nH]c3ncc(Cl)cc23)c1F [ONC0004747, plx4720]",107.4%
16,"CNC(=O)CN1CCC(Oc2cc3c(Nc4cccc(Cl)c4F)ncnc3cc2OC)CC1 [ONC0005004, azd8931]",85.22%
17,"Cc1cn(C[C@H](N)C(=O)O)c(=O)n(Cc2ccsc2C(=O)O)c1=O [ONC0001727, ubp310]",134.9%
18,"CC(=O)c1ccc2c(c1)[C@@H]1C=CC[C@@H]1[C@H](c1cc3c(cc1Br)OCO3)N2 [ONC0000232, g1]",65.68%
19,"c1cnc(NCc2ccc(CNc3ncccn3)cc2)nc1 [ONC0002000, msx122]",83.13%
20,"N[C@H](Cc1cc(I)c(Oc2ccc(O)c(I)c2)c(I)c1)C(=O)O [ONC0003830, liothyronine]",90.31%
21,"COc1cc(N)c(Cl)cc1C(=O)NC1CCN(Cc2ccccc2)CC1 [ONC0002349, clebopride]",82.36%

row,Compound,% viability
1,"S=P(N1CC1)(N1CC1)N1CC1 [ONC0003122, thiotepa]",71.7%
2,"CC12CCC(C(=O)N(CCCCN3CCN(c4ccccn4)CC3)C1=O)C2(C)C (centres unmarked) [ONC0003565, piricapiron]",102.1%
3,"c1ccc(C2(c3ccccc3)CC2=C2NCCN2)cc1 [ONC0005472, cibenzoline]",97.66%
4,"CNCCc1c[nH]cn1 [ONC0002580, nalphamethylhistaminedihydrochloride]",77.02%
5,"CCCCOc1ccc(OCCCN2CCOCC2)cc1 [ONC0000632, pramoxine hydrochloride]",97.11%
6,"CCCC[C@H](C)C[C@H](O)/C=C/[C@H]1[C@H](O)CC(=O)[C@@H]1CCCC/C=C/C(=O)O [ONC0005482, limaprost]",96.34%
7,"CCCOc1ccc2nc(NC(=O)OC)[nH]c2c1 [ONC0002872, oxibendazole]",89.15%
8,"CC1(C)S[C@@H]2[C@H](/N=C/N3CCCCCC3)C(=O)N2[C@H]1C(=O)O [ONC0005484, amdinocillin]",106.3%
9,"CN1CCN(C(=O)CN[C@@H]2C[C@H]2c2ccc(OCc3ccccc3)cc2)CC1 [ONC0000424, rn1]",85.6%
10,"CC(=O)N[C@H]1[C@H]([C@H](O)[C@H](O)CO)O[C@](O)(C(=O)O)C[C@@H]1O [ONC0003418, nacetylneuraminic acid]",74.29%
11,"COc1cc(N2CCC(N3CCN(C)CC3)CC2)ccc1Nc1ncc(Cl)c(Nc2ccccc2S(=O)(=O)C(C)C)n1 [ONC0004374, tae684 nvptae684]",132.9%
12,"CC1CCc2cc(F)cc3c(=O)c(C(=O)O)cn1c23 (centres unmarked) [ONC0003194, flumequine]",88.77%
13,"O=C(NCC1CCCCN1)c1cc(OCC(F)(F)F)ccc1OCC(F)(F)F (centres unmarked) [ONC0001650, flecainide]",77.98%
14,"Nc1nccc(Oc2ccc(NC(=O)c3cn(COP(=O)(O)O)cc(-c4ccc(F)cc4)c3=O)cc2F)c1Cl [ONC0000759, scr1481b1]",84.2%
15,"CCC(CC)[C@H](NC(C)=O)[C@@H]1[C@H](O)[C@@H](C(=O)O)C[C@H]1NC(=N)N [ONC0004447, peramivir trihydrate]",122.8%
16,"CC(C)c1nc(CN(C)C(=O)N[C@H](C(=O)N[C@@H](Cc2ccccc2)C[C@H](O)[C@H](Cc2ccccc2)NC(=O)OCc2cncs2)C(C)C)cs1 [ONC0004602, ritonavir]",66.72%
17,"COc1cc2c(cc1OC)-c1cc3nc4ccccc4nc3n1C(C)(C)C2 [ONC0001489, ym90709]",74.53%
18,"COc1ccccc1OCCNCC(O)COc1cccc2[nH]c3ccccc3c12 (centres unmarked) [ONC0004229, carvedilol]",59.96%
19,"COc1ccc(CCCOC(Cn2ccnc2)c2ccc(OC)cc2)cc1 (centres unmarked) [ONC0000065, skf96365]",143.6%
20,"COc1ccc(C(C)=O)c(O)c1 [ONC0002736, paeonol peonol]",74.65%
21,"CC(C)N[C@H]1CCn2c(=O)[nH]c3cccc(c32)[C@@H]1O [ONC0003872, zilpaterol]",87.84%

row,Compound,% viability
1,"COc1ccc(-n2nc(C(N)=O)c3c2C(=O)N(c2ccc(N4CCCCC4=O)cc2)CC3)cc1 [ONC0005465, apixaban]",93.64%
2,"CC(C)[C@H]1CC[C@H](C(=O)N[C@H](Cc2ccccc2)C(=O)O)CC1 [ONC0004252, nateglinide]",54.34%
3,"COc1c(O)cc2c(c1O)[C@@H]1O[C@H](CO)[C@@H](O)[C@H](O)[C@H]1OC2=O [ONC0003213, bergenin]",99.85%
4,"CC(=O)Oc1cccc(C(=O)O)c1OC(C)=O [ONC0002835, dipyrocetyl]",97.19%
5,"c1ccc(N2CCN(CCCOc3ccc4c(c3)OCO4)CC2)cc1 [ONC0001583, bp554]",98.14%
6,"Oc1ccc(-c2nc(-c3ccncc3)c(-c3ccc(F)cc3)[nH]2)cc1 [ONC0000026, sb202190]",54.44%
7,"CCn1cc(C(=O)O)c(=O)c2cc(F)c(N3CCNCC3)cc21 [ONC0000382, norfloxacin]",90.58%
8,"C[C@]12CC[C@H](O)CC1=CC[C@@H]1[C@@H]2CC[C@]2(C)C(=O)CC[C@@H]12 [ONC0003994, prasterone]",65.2%
9,"N[C@@H](C(=O)O)c1ccc(O)c(C(=O)O)c1 [ONC0001483, 3carboxy4hydroxyphenylglyciner]",93.89%
10,"CC(C)CNc1nc(-c2cccc3ncccc23)cn2c(-c3ccc(C(=O)NC4CC4)cc3)cnc12 [ONC0001261, mpsbay2a]",100.7%
11,"CC(C)C[C@H](NC(=O)CNC(=O)c1cc(Cl)ccc1Cl)B1OC(=O)CC(CC(=O)O)(C(=O)O)O1 (some centres unmarked) [ONC0004630, ixazomib citrate mln9708]",70.19%
12,"CCCC[C@]1(CC)CS(=O)(=O)c2cc(CNC(CC(=O)O)CC(=O)O)c(OC)cc2[C@@H](c2ccccc2)N1 [ONC0001047, iinerixibat]",91.57%
13,"Nc1ncnc2c1c(-c1cccc(OCc3ccccc3)c1)cn2C1CC(CN2CCCC2)C1 (stereo in doubt) [ONC0000263, nvpadw742]",57.9%
14,"CCOC(=O)C1=C(C)NC(C)=C(C(=O)OC)C1c1cccc([N+](=O)[O-])c1 (centres unmarked) [ONC0002416, nitrendipine]",95.63%
15,"Cc1nc2c(OCc3ccccc3)cccn2c1CC#N [ONC0002660, sch28080]",71.4%
16,"C[C@@]12CC[C@@H]3[C@@](CC[C@H]4[C@@]3(C)CCC[C@@]4(C)C(=O)O)(CC1=O)C2 [ONC0002858, isosteviol]",83.56%
17,"Cc1c[nH]c(-c2cnc(NCCNc3ccc(C#N)cn3)nc2-c2ccc(Cl)cc2Cl)n1 [ONC0004531, chir99021 ct99021 hcl]",57.04%
18,"NS(=O)(=O)c1cc2c(cc1C(F)(F)F)NC(Cc1ccccc1)NS2(=O)=O (centres unmarked) [ONC0003124, bendroflumethiazide]",78.23%
19,"COc1cc(C[C@H]2C(=O)OC[C@@H]2Cc2ccc(OC)c(OC)c2)ccc1O [ONC0002530, arctigenin]",94.19%
20,"CCOc1cc(N2CCC(O)CC2)ccc1Nc1ncc2c(n1)N(C)c1ccccc1C(=O)N2C [ONC0001782, xmd892]",89.29%

# Among those listed so far, 11 have an NH in an aromatic ring.
row,Compound,% viability
4,"CCc1c(C(=O)NCCc2ccc(N3CCCCC3)cc2)[nH]c2ccc(Cl)cc12 [ONC0004879, org 27569]",111.9%
7,"CN1CCN(c2ccc(C(=O)Nc3n[nH]c4ccc(Cc5cc(F)cc(F)c5)cc34)c(NC3CCOCC3)c2)CC1 [ONC0004424, entrectinib rxdx101]",155.1%
9,"CN1Cc2ccccc2[C@@H]2c3cccc4[nH]cc(c34)C[C@H]21 [ONC0000732, cy208243]",63.23%
10,"O=c1[nH]c([C@@H]2CCCN2)nc2c1oc1ccc(Cl)cc12 [ONC0001835, xl413 hydrochloride]",97.05%
15,"CCCS(=O)(=O)Nc1ccc(F)c(C(=O)c2c[nH]c3ncc(Cl)cc23)c1F [ONC0004747, plx4720]",107.4%
4,"CNCCc1c[nH]cn1 [ONC0002580, nalphamethylhistaminedihydrochloride]",77.02%
7,"CCCOc1ccc2nc(NC(=O)OC)[nH]c2c1 [ONC0002872, oxibendazole]",89.15%
18,"COc1ccccc1OCCNCC(O)COc1cccc2[nH]c3ccccc3c12 (centres unmarked) [ONC0004229, carvedilol]",59.96%
21,"CC(C)N[C@H]1CCn2c(=O)[nH]c3cccc(c32)[C@@H]1O [ONC0003872, zilpaterol]",87.84%
6,"Oc1ccc(-c2nc(-c3ccncc3)c(-c3ccc(F)cc3)[nH]2)cc1 [ONC0000026, sb202190]",54.44%
17,"Cc1c[nH]c(-c2cnc(NCCNc3ccc(C#N)cn3)nc2-c2ccc(Cl)cc2Cl)n1 [ONC0004531, chir99021 ct99021 hcl]",57.04%
